Values quoted from earlier work in publication PMC11787888, “Development and confirmation of humanized plasma and epithelial lining fluid exposures of meropenem, cefiderocol and tobramycin in a standardized neutropenic murine pneumonia model” (Journal of Antimicrobial Chemotherapy, 2024).

Tested on: K. pneumoniae CDC 851
Set-up: method as in earlier work
Conditions: cited from earlier work

## C[C@@H](O)[C@H]1C(=O)N2C(C(=O)O)=C(S[C@@H]3CN[C@H](C(=O)N(C)C)C3)[C@H](C)[C@H]12 [Meropenem, meropenem]
  MIC: ≤ 0.12 µg/mL
